PubChem BioAssay AID504808, Drosophila RNAi Screening Center, 2011

Assay: 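Fly genes required to hold E2F transcription in check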 (primary screen)
Cell system: Drosophila S2 cells
Knock-down reagent: long dsRNA against Drosophila genes
Measurement: 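Dual luciferase plate measurements; E2F-specific signal taken as firefly over Renilla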
Scale: E2F firefly: higher = more E2F reporter activity; Renilla normaliser: higher = more normaliser reporter signal
Rule for the call: 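a knock-down counted as active when the firefly/Renilla E2F signal rose above 50%, a threshold chosen arbitrarily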
In all, the deposit lists about 21,000 reagents; below is an unselected part of those with a known target gene and a result. In the full data, 18 (0.084%) got an active call. 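Raw counts without plate normalisation, one of two replicates; the ratio scores behind the calls were not deposited.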 Entries without a mark were called inactive. The numbers tell different reagents against one gene apart. Names joined by + are all predicted targets of the reagent. Reagent sequences are not shown. Not given: the amount of reagent, the time to read-out.

| predicted target | reagent no. | E2F firefly, rep 1 | Renilla normaliser, rep 1 |
| --- | --- | --- | --- |
| RpS7 (Ribosomal protein S7) | 1 | 62780 | 6029 |
| Or49a (Odorant receptor 49a) | 1 | 97254 | 4344 |
| Obp83b (Odorant-binding protein 83b) | 1 | 1.42e5 | 6776 |
| Ak6 (Adenylate kinase 6) | 1 | 1.00e5 | 3866 |
| CG3308 | 1 | 69824 | 3326 |
| CG13544 | 1 | 1.03e5 | 4889 |
| Psf2 (Partner of Sld Five 2) | 1 | 1.21e5 | 4364 |
| CG17959 | 1 | 1.12e5 | 6304 |
| Blm (Bloom syndrome helicase) | 1 | 79579 | 3146 |
| Hydr2 (alpha/beta hydrolase2) | 1 | 72077 | 3906 |
| E(spl)mgamma-HLH (Enhancer of split mgamma, helix-loop-helix) | 1 | 1.11e5 | 5861 |
| Atu (Another transcription unit) | 1 | 60688 | 3503 |
| yellow-d | 1 | 1.06e5 | 4719 |
| CG7548 | 1 | 1.02e5 | 4081 |
| CG4598 | 1 | 1.59e5 | 5051 |
| Calx (Na/Ca-exchange protein) | 1 | 85991 | 2375 |
| Calx (Na/Ca-exchange protein) | 2 | 77190 | 2462 |
| Calx (Na/Ca-exchange protein) | 3 | 1.20e5 | 7214 |
| chas (chascon) | 1 | 2.70e5 | 7805 |
| chas (chascon) | 2 | 2.56e5 | 7694 |
| CG10116 | 1 | 76801 | 3179 |
| CG5382 | 1 | 73601 | 2669 |
| Nup154 (Nucleoporin 154kD) | 1 | 71741 | 3553 |
| CG33969 + fbl | 1 | 1.48e5 | 7249 |
| CG17198 + CG17197 | 1 | 1.08e5 | 5762 |
| CG17198 + CG17197 | 2 | 1.15e5 | 6154 |
| rost (rolling stone) | 1 | 76184 | 3282 |
| Cdep (Chondrocyte-derived ezrin-like domain containing protein) | 1 | 92010 | 3294 |
| Cdep (Chondrocyte-derived ezrin-like domain containing protein) | 2 | 73200 | 2981 |
| Cdep (Chondrocyte-derived ezrin-like domain containing protein) | 3 | 1.24e5 | 6184 |
| LManIV (Lysosomal alpha-mannosidase IV) | 1 | 1.52e5 | 4716 |
| Ptp69D (Protein tyrosine phosphatase 69D) | 1 | 89740 | 3981 |
| Spn27A (Serpin 27A) | 1 | 1.56e5 | 5206 |
| CG14183 | 1 | 78637 | 3686 |
| Scgbeta (Sarcoglycan beta) | 1 | 1.46e5 | 6670 |
| HP6 (Heterochromatin protein 6) | 1 | 1.34e5 | 4745 |
| Tb (Tubby) | 1 | 1.10e5 | 5603 |
| CG44098 | 1 | 1.51e5 | 6418 |
| CG44098 | 2 | 1.41e5 | 7733 |
| CG32576 + UQCR-14 | 1 | 1.59e5 | 6053 |
| CG6424 | 1 | 63206 | 3236 |
| CG9166 | 1 | 95070 | 4773 |
| shi (shibire) | 1 | 7491 | 712 |
| CG2124 | 1 | 1.19e5 | 5015 |
| Phm (Peptidylglycine-alpha-hydroxylating monooxygenase) | 1 | 89610 | 4823 |
| AOX4 (Aldehyde oxidase 4) | 1 | 1.12e5 | 5964 |
| Pen (Pendulin) | 1 | 91344 | 3617 |
| snama (something that sticks like glue) | 1 | 71334 | 3306 |
| nanos | 1 | 1.40e5 | 6691 |
| Grp170 (Grp170 co-chaperone) | 1 | 2132 | 1012 |
| CG12288 | 1 | 1.01e5 | 4321 |
| CG10465 | 1 | 1.10e5 | 4713 |
| CG10809 | 1 | 1.38e5 | 6722 |
| CG1889 | 1 | 7721 | 720 |
| ND-B14.5AL (NADH dehydrogenase (ubiquinone) B14.5 A subunit-like) | 1 | 1.34e5 | 5771 |
| osy (oskyddad) | 1 | 1.09e5 | 5151 |
| osy (oskyddad) | 2 | 85081 | 4528 |
| osy (oskyddad) | 3 | 1700 | 964 |
| CG5882 | 1 | 98707 | 6019 |
| CG13217 | 1 | 86518 | 4174 |
| loco (locomotion defects) | 1 | 1.02e5 | 5774 |
| loco (locomotion defects) | 2 | 78215 | 3718 |
| Sec13 (Secretory 13) | 1 | 65584 | 3042 |
| Pep (Protein on ecdysone puffs) | 1 | 59059 | 2957 |
| HLH4C (Helix loop helix protein 4C) | 1 | 1.05e5 | 4726 |
| CG6966 | 1 | 1.10e5 | 6624 |
| Hsp27 (Heat shock protein 27) | 1 | 73139 | 3629 |
| Cdk8 (Cyclin-dependent kinase 8) | 1 | 80211 | 3396 |

Laid out differently: 8 of the entries above
predicted target,reagent no.,"E2F firefly, rep 1","Renilla normaliser, rep 1"
CG44098,1,1.51e5,6418
CG44098,2,1.41e5,7733
CG32576 + UQCR-14,1,1.59e5,6053
CG6424,1,63206,3236
CG9166,1,95070,4773
shi (shibire),1,7491,712
CG2124,1,1.19e5,5015
Phm (Peptidylglycine-alpha-hydroxylating monooxygenase),1,89610,4823

The listing continues.
| predicted target | reagent no. | E2F firefly, rep 1 | Renilla normaliser, rep 1 |
| --- | --- | --- | --- |
| Ttd14 (TRPL translocation defect 14) | 1 | 63178 | 3164 |
| Ttd14 (TRPL translocation defect 14) | 2 | 1.41e5 | 4766 |
| twf (twinfilin) | 1 | 88995 | 4196 |
| CG31102 | 1 | 1.13e5 | 6122 |
| Cap-D3 + tomb | 1 | 1.73e5 | 6021 |
| CG13998 | 1 | 1.64e5 | 5749 |
| CG15422 | 1 | 1.53e5 | 4802 |
| Bet3 (Blocked early in transport 3) | 1 | 1.24e5 | 7665 |
| Cyp308a1 (Cytochrome P450 308a1) | 1 | 1.36e5 | 6686 |
| CG30159 | 1 | 77222 | 3442 |
| CG11634 | 1 | 1.01e5 | 4281 |
| fat-spondin | 1 | 78422 | 3832 |
| CG17570 | 1 | 1.26e5 | 4257 |
| CG17570 | 2 | 1.00e5 | 4484 |
| RhoGAP16F (Rho GTPase activating protein at 16F) | 1 | 1.41e5 | 5372 |
| g (garnet) | 1 | 74063 | 4451 |
| HIP + HIP-R | 1 | 1840 | 992 |
| CG10750 | 1 | 81452 | 3417 |
| CG13385 | 1 | 1.43e5 | 5156 |
| Targ3 (Terminal ADP-ribose protein glycohydrolase 3) | 1 | 86807 | 3559 |
| ACXB (Adenylyl cyclase X B) | 1 | 1.08e5 | 4137 |
| CG8726 | 1 | 2730 | 227 |
| Pde8 (Phosphodiesterase 8) | 1 | 80721 | 3491 |
| CG14963 | 1 | 95793 | 3855 |
| SiaT (Sialyltransferase) | 1 | 1.12e5 | 4674 |
| CG7720 | 1 | 79624 | 3436 |
| CG7720 | 2 | 52161 | 3667 |
| CG32086 | 1 | 1.12e5 | 6219 |
| Shal (Shaker cognate l) | 1 | 92432 | 3663 |
| Shal (Shaker cognate l) | 2 | 1.49e5 | 7611 |
| CG4452 | 1 | 69627 | 3363 |
| CG34325 | 1 | 1.69e5 | 6651 |
| CG34325 | 2 | 1.63e5 | 7076 |
| CG3817 | 1 | 65658 | 3351 |
| CIA30 (Complex I intermediate-associated protein, 30 kDa) | 1 | 1981 | 1016 |
| obst-F (obstructor-F) | 1 | 1.13e5 | 5428 |
| VGAT (Vesicular GABA Transporter) | 1 | 98847 | 4098 |
| CG7378 | 1 | 1.42e5 | 6048 |
| CG31871 | 1 | 1.50e5 | 4978 |
| CG31871 | 2 | 1.75e5 | 5186 |
